# Laboratory results: PMC9547286, “LOXL2-dependent deacetylation of aldolase A induces metabolic reprogramming and tumor progression^☆” (Redox Biology, 2022)
# Results are given in words; binding and its absence hold for the method and conditions named. A result given as binding can be weak or reduced; the word gives no strength. Tags and fused reporters may be left off the sequences shown. For some assays here: Binding seen in cells or lysates may run through a third protein.
# Key:
# GST-aldolase A (human) = molecular target: T1, GST-aldolase A (human) (UniProt P04075); test: pull-down; Purified GST-aldolase A or GST from bacteria on glutathione resins, incubated with immunopurified LOXL2-Flag or L2Δ13-Flag from HEK293T at 4 °C for 2 h; immunoblot with anti-Flag; both purified
# T1 sequence: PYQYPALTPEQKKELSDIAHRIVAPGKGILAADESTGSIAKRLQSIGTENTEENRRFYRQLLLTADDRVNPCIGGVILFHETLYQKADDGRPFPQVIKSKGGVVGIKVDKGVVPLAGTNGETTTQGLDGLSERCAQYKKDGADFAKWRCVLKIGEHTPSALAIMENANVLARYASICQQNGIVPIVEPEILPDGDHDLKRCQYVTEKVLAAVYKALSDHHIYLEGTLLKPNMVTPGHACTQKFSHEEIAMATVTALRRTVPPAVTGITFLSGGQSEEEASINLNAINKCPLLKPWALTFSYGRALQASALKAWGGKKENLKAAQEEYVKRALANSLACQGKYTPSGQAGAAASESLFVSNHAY
# aldolase A-Flag (human) = molecular target: T2, aldolase A-Flag (human) (UniProt P04075); test: co-IP; HEK293T cells co-transfected with LOXL2-HA or L2Δ13-HA and Flag-tagged glycolytic enzyme; whole cell lysates immunoprecipitated with anti-Flag, western blotting
# T2 sequence: T1 sequence
binding (GST-aldolase A (human)),binding (aldolase A-Flag (human)),Substance
binds,–,L2Δ13-Flag (human) (enzyme)
–,binds,L2Δ13-HA (LOXL2 splice variant lacking exon 13) (human) (enzyme)
